PubChem BioAssay AID1159584 – Peter MacCallum Cancer Centre | 2016
Screen: 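Genes whose loss is lethal only together with E-cadherin loss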 (primary screen). Cells: human MCF10A breast epithelial cells, parental and CDH1-null. Reagents: siRNA against human genes. Measured: 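ATP luminescence (CellTiter-Glo) viability per line relative to mean mock wells over all plates, and the ratio of CDH1-null to parental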. Scale: CDH1-null / parental viability ratio: higher = CDH1-null cells survive relatively better than parental; CDH1-null viability vs mock: higher = more viable CDH1-null cells; parental viability vs mock: higher = more viable parental cells.
The whole screen tested about 18,000 reagents; shown is a random part of them. Not given: the amount of reagent, the time to read-out.

gene knocked down | CDH1-null / parental viability ratio | CDH1-null viability vs mock (fraction of mock) | parental viability vs mock (fraction of mock)
SLITRK2 | 1.17 | 0.96 | 0.82
ATP4B | 1.26 | 1.23 | 0.98
NUCB1 | 0.95 | 0.38 | 0.4
ZNF654 | 1.02 | 0.58 | 0.57
ZFPM1 | 1.19 | 0.92 | 0.77
OR5H2 | 1.07 | 0.79 | 0.74
TUBG2 | 1.37 | 0.82 | 0.6
DNAJA1 | 0.63 | 0.49 | 0.78
SCNN1G | 1.04 | 0.84 | 0.81
CLIP4 | 1.09 | 0.74 | 0.68
ZNF439 | 0.93 | 0.55 | 0.59
CT47A5 | 0.89 | 0.4 | 0.45
ANKRD24 | 1.07 | 0.94 | 0.88
DYM | 0.82 | 0.98 | 1.2
AMIGO1 | 1.12 | 0.92 | 0.82
PPDPFL | 0.92 | 0.66 | 0.72
KCNJ9 | 1.23 | 1.16 | 0.94
GINS1 | 0.78 | 0.76 | 0.98
DMXL2 | 0.95 | 0.86 | 0.91
PGAP3 | 1.04 | 0.85 | 0.82
PRPF39 | 1.09 | 0.83 | 0.76
BTNL2 | 0.58 | 0.36 | 0.62
P2RY13 | 0.7 | 0.74 | 1.06
ARMCX5 | 1.21 | 0.8 | 0.66
EYA1 | 1.3 | 0.87 | 0.67
DNAJA3 | 1.29 | 0.84 | 0.65
EVX1 | 1 | 0.5 | 0.5
NDUFS6 | 1.05 | 0.92 | 0.88
SHD | 1.39 | 0.86 | 0.62
OR8B12 | 0.96 | 0.77 | 0.8
IL18 | 1 | 0.87 | 0.87
OR5AK2 | 1.26 | 0.96 | 0.76
ARL6IP5 | 0.96 | 1.08 | 1.12
PRSS1 | 1.1 | 0.91 | 0.83
SVOPL | 1.58 | 0.38 | 0.24
NOP9 | 1.23 | 0.74 | 0.6
BMP5 | 1.14 | 0.9 | 0.79

The list goes on, starting with the last 3 of the part before.
gene knocked down | CDH1-null / parental viability ratio | CDH1-null viability vs mock (fraction of mock) | parental viability vs mock (fraction of mock)
SVOPL | 1.58 | 0.38 | 0.24
NOP9 | 1.23 | 0.74 | 0.6
BMP5 | 1.14 | 0.9 | 0.79
OR4K15 | 1.08 | 0.95 | 0.88
RRP8 | 1.03 | 0.68 | 0.66
GRPR | 0.82 | 0.82 | 1
SHOX | 0.98 | 1.02 | 1.04
CTAG1A | 0.87 | 0.54 | 0.62
USP1 | 1.11 | 0.84 | 0.76
IWS1 | 1.15 | 0.92 | 0.8
SFXN1 | 1.04 | 1.16 | 1.12
AGPAT5 | 1.11 | 0.91 | 0.82
VWA5A | 1.2 | 0.96 | 0.8
PPP2R1A | 1.42 | 0.95 | 0.67
HSD11B1 | 1.02 | 1 | 0.98
CDC45 | 0.87 | 0.55 | 0.63
AHDC1 | 1.13 | 0.54 | 0.48
BAGE2 | 0.89 | 0.75 | 0.84
SNX19 | 1.48 | 0.86 | 0.58
CALCOCO2 | 1.02 | 0.98 | 0.96
SPTBN5 | 1.1 | 1.1 | 1
MAMDC4 | 0.92 | 0.7 | 0.76
DUSP4 | 1.34 | 0.91 | 0.68
AP4M1 | 0.91 | 0.86 | 0.94
XPO7 | 1.09 | 0.74 | 0.68
NYAP1 | 0.83 | 0.38 | 0.46
LTBP3 | 1.02 | 0.45 | 0.44
SMTNL2 | 1.22 | 0.44 | 0.36
RARRES1 | 1 | 0.74 | 0.74
RBMY1B | 1.01 | 1.05 | 1.04
CNOT9 | 1.01 | 0.76 | 0.75
CBY1 | 0.73 | 0.45 | 0.62
DERL1 | 1 | 0.76 | 0.76
LRRC73 | 0.92 | 0.59 | 0.64
